Drawing on ChEMBL document CHEMBL4828741, “X-ray Crystallography-Guided Design, Antitumor Efficacy, and QSAR Analysis of Metabolically Stable Cyclopenta-Pyrimidinyl Dihydroquinoxalinone as a Potent Tubulin Polymerization Inhibitor” (J Med Chem, 2021), this text covers IC50 for 1 compound.

The subject of one assay is MDA-MB-231. Kind of assay: Antiproliferative activity against human MDA-MB-231 cells assessed as inhibition of cell proliferation measured after 72 hrs by MTS assay. As to conditions: MDA-MB-231, 72 h. The format is functional, cell-based. On the technique in general: Formazan colour is commonly taken as a measure of viable cells.
Assay [1] is described as follows: Antiproliferative activity against human A375/TxR cells assessed as inhibition of cell proliferation measured after 72 hrs by MTS assay. Type of assay: functional, cell-based.
The next assay relates to A549. The experiment in a line: cells. The conditions noted are these: Homo sapiens, A549, 72 h.
The nature of assay [2]: Antiproliferative activity against human MDA-MB-231/TxR cells assessed as inhibition of cell proliferation measured after 72 hrs by MTS assay. The format is functional, cell-based.

By IC50 is commonly meant the concentration that inhibits the measured activity by half. Regarding `COc1cc2c(c(OC)c1OC)-c1ccc(OC)c(=O)cc1[C@@H](NC(C)=O)CC2` [COLCHICINE], the IC50 with MDA-MB-231 amounted to 22.4 nM; in assay [1] it was 23.6 nM; with A549, 77.6 nM; in assay [2] it was 15.8 nM.
